# Results from PubChem BioAssay AID587 (National Center for Advancing Translational Sciences (NCATS), 2007).
# Out of some 59,000 compounds screened, about 35 (0.06%) were called active. Inconclusive results, whose numbers are uncertain, are shown with a selection of clear calls. Cut-off read from the data, not from the text of the source: active = max dye-equivalent concentration above about 10 nM; inconclusive = between about 1.1 nM and that limit; inactive = weaker than that.
# Experiment: qHTS Assay for Spectroscopic Profiling in Texas Red Spectral Region
# Conditions: Compound fluorescence, Texas Red channel, 547/618 nm; hits give high values
# Procedure, shortened: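 Compound fluorescence was read after 15 min at room temperature in 100 mM Tris, pH 8.0, using 547 nm excitation and 618 nm emission across a concentration series. It was expressed as Texas Red dye-equivalent concentration from an on-plate standard curve.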
row,SMILES,max dye-equivalent concentration
1,CCOC(=O)Cc1csc(NC(=O)CSc2nc3cccnc3n2CC)n1,inconclusive: 1.2 nM
2,Fc1ccccc1N1CCN(c2nc3ccccc3n3nnnc23)CC1,inactive
3,CC(C)C(NCc1c(Cl)cccc1Cl)C(=O)O (centres undefined),inconclusive: 1.6 nM
4,NS(=O)(=O)c1cc([C@@]2(O)NC(=O)c3ccccc32)ccc1Cl,inconclusive: 1.4 nM
5,CCOCc1nnc(NC(=O)CCc2ccccc2)s1,inconclusive: 2.1 nM
6,CN(C)c1cc(N)c2ccccc2n1 (tested in a mixture with another compound),inactive
7,Cc1cc(/N=C/N(C)C)on1,inconclusive: 1.2 nM
8,CCOC(=O)N1CCN(c2ncnc3c2oc2nc(CC(C)C)c4c(c23)CCC4)CC1,inconclusive: 1.2 nM
9,CCOC(=O)Cc1csc(NC(=O)CSc2nc(C)cc(=O)[nH]2)n1,inconclusive: 2.3 nM
10,COC(=O)c1ccc(-n2nnnc2SCC(=O)NCc2cccc(C(=O)O)c2)cc1,inconclusive: 1.4 nM
11,c1nc(NCCc2cnc[nH]2)c2[nH]cnc2n1,inactive
12,O=C(COC(=O)CCc1c[nH]c(=O)[nH]1)Nc1cccc(Cl)c1,inconclusive: 1.4 nM
13,OC1CCN(C(c2ccc3ncccc3c2)c2nnnn2C2CCCCC2)CC1 (centres undefined),inconclusive: 1.4 nM
14,CCOC(=O)C(C(=O)OCC)C(=O)c1cc(OC)c(OC)c(OC)c1,inconclusive: 2.2 nM
15,CN1CCN(C(=O)c2ccc(COc3ccc(Cl)cc3Cl)cc2)CC1,inconclusive: 1.3 nM
16,O=C(CSc1nn(-c2ccc(F)cc2)c(=S)s1)NC(=O)NCc1ccco1,inconclusive: 1.1 nM
17,COCCn1c(COc2ccc(C)cc2)nc2ccccc21,inconclusive: 1.1 nM
18,Cc1cc(C(=O)O)c(=O)[nH]c1C,inconclusive: 2.2 nM
19,COC(=O)c1sc(N)c(C(=O)OC)c1COC(=O)c1c(C)noc1C,inconclusive: 2.5 nM
20,Cc1cccc(C)c1NC(=O)CSc1nnc(Cn2nnc(-c3ccccc3)n2)n1-c1ccccc1,inconclusive: 1.1 nM
21,COC(=O)c1cc(NC(=O)CN2CCOCC2)cc(C(=O)OC)c1,inconclusive: 2.6 nM
22,N[C@H](COP(=O)(O)O)C(=O)O,inactive

# Reformatted bar-delimited: nine of the compounds above.
row | SMILES | max dye-equivalent concentration
1 | CCOC(=O)Cc1csc(NC(=O)CSc2nc3cccnc3n2CC)n1 | inconclusive: 1.2 nM
3 | CC(C)C(NCc1c(Cl)cccc1Cl)C(=O)O (centres undefined) | inconclusive: 1.6 nM
5 | CCOCc1nnc(NC(=O)CCc2ccccc2)s1 | inconclusive: 2.1 nM
9 | CCOC(=O)Cc1csc(NC(=O)CSc2nc(C)cc(=O)[nH]2)n1 | inconclusive: 2.3 nM
12 | O=C(COC(=O)CCc1c[nH]c(=O)[nH]1)Nc1cccc(Cl)c1 | inconclusive: 1.4 nM
13 | OC1CCN(C(c2ccc3ncccc3c2)c2nnnn2C2CCCCC2)CC1 (centres undefined) | inconclusive: 1.4 nM
17 | COCCn1c(COc2ccc(C)cc2)nc2ccccc21 | inconclusive: 1.1 nM
18 | Cc1cc(C(=O)O)c(=O)[nH]c1C | inconclusive: 2.2 nM
21 | COC(=O)c1cc(NC(=O)CN2CCOCC2)cc(C(=O)OC)c1 | inconclusive: 2.6 nM

# Later entries:

row,SMILES,max dye-equivalent concentration
1,CC(C)(C)C1CCc2onc(C(=O)Nc3ccc(F)cc3F)c2C1 (centres undefined),inconclusive: 1.4 nM
2,CC1(C)Cc2c(sc3nn[nH]c(=O)c23)CO1,inconclusive: 1.3 nM
3,CN1C(=O)C[C@H](c2ccccc2)C1=O,inconclusive: 1.5 nM
4,OC1(Cc2ccn[nH]2)CCCCC1,inconclusive: 2.1 nM
5,Cc1ccc(N(C(=O)C2CCCC2)C2C=CS(=O)(=O)C2)cc1C (centres undefined),inconclusive: 1.3 nM
6,CC(=O)c1ccc(Oc2ncnc3sccc23)c(CN2CCOCC2)c1,inconclusive: 2.3 nM
7,CC1(C)CC(=O)C(CCC(=O)c2ccccc2)C(C)(C)N1 (centres undefined),inconclusive: 2 nM
8,CCOC(=O)N1CCN(C(=O)c2cccc(NC(=O)c3ccco3)c2)CC1,inconclusive: 1.7 nM
9,O=C(CSc1nnc(-c2cccnc2)n1-c1ccccc1)Nc1ccc2c(c1)OCO2,inconclusive: 1.1 nM
10,N#Cc1c(NC(=O)COC(=O)C2CC3C=CC2C3)oc(-c2ccccc2)c1-c1ccccc1 (centres undefined),inconclusive: 1.1 nM
11,CN(Cc1cnc2nc(N)nc(N)c2n1)c1ccc(C(=O)N[C@H](CCC(=O)O)C(=O)O)cc1,inconclusive: 1.3 nM
12,c1ccc(CC2CCN(c3nc(N4CCOCC4)nc(N4CCOCC4)n3)CC2)cc1,inconclusive: 1.7 nM
13,CS(=O)(=O)N1CCN(c2ccccc2NC(=O)c2cccnc2)CC1,inconclusive: 1.1 nM
14,COc1cccc(NC(=O)c2ccccc2-c2nc(-c3ccccc3)no2)c1,inconclusive: 1.1 nM
15,CCOC(=O)CSCC(=O)Nc1cc(C)ccc1C,inconclusive: 1.5 nM
16,Cc1nc(NC2=NCN(CCc3ccccc3)CN2)nc2c(C)cccc12,inconclusive: 1.1 nM
17,COc1ccc(OC)c(NC(=O)CCN2CCN(c3ccccc3)CC2)c1,inconclusive: 1.3 nM
18,O=C1CCCCCN1C(=O)c1ccc(C(=O)N2CCCCCC2=O)cc1,inconclusive: 1.3 nM
19,O=c1c(-c2ccc(F)cc2)coc2c3c(ccc12)OCCO3,inconclusive: 1.4 nM
20,COC(=O)CS(=O)(=O)c1nnc([C@H](Cc2ccccc2)NC(=O)OC(C)(C)C)o1,inconclusive: 1.6 nM
21,O=C(O)c1ccc(NCc2cccnc2)cc1,inconclusive: 3.1 nM
22,COc1ccc2c(CC(=O)OCC(=O)N3CCc4ccccc43)coc2c1,inconclusive: 1.8 nM
